Reference: doi:10.1101/2021.04.23.441060
Results are given in words; binding and its absence hold for the method and conditions named. In cells and extracts the contact can be indirect. Some results given as binding are weak or reduced against the parent protein; the word gives no strength.

Sequences of proteins named here, by UniProt entry; tags and fusion partners are left off.
UniProt P48432: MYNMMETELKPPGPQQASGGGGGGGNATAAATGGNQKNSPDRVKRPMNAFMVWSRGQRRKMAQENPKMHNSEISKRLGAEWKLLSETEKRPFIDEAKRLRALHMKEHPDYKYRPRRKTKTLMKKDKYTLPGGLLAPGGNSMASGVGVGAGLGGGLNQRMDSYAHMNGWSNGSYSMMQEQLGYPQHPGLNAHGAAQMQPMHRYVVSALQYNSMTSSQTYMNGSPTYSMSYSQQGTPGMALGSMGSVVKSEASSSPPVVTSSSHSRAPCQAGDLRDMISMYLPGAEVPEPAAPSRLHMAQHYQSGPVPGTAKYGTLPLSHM
UniProt O09106: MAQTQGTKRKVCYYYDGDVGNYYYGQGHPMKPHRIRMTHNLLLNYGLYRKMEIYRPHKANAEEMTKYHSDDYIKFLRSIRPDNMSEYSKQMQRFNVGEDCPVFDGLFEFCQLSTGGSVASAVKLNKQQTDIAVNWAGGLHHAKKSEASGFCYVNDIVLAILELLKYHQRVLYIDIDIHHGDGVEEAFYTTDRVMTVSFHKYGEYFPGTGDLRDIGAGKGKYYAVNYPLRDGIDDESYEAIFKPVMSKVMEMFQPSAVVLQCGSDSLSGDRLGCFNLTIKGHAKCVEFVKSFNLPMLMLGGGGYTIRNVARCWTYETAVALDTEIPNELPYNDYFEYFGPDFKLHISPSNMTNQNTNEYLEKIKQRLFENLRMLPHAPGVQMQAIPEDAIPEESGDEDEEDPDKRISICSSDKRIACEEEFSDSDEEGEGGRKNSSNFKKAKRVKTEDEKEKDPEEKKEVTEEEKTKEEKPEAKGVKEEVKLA
UniProt P70288: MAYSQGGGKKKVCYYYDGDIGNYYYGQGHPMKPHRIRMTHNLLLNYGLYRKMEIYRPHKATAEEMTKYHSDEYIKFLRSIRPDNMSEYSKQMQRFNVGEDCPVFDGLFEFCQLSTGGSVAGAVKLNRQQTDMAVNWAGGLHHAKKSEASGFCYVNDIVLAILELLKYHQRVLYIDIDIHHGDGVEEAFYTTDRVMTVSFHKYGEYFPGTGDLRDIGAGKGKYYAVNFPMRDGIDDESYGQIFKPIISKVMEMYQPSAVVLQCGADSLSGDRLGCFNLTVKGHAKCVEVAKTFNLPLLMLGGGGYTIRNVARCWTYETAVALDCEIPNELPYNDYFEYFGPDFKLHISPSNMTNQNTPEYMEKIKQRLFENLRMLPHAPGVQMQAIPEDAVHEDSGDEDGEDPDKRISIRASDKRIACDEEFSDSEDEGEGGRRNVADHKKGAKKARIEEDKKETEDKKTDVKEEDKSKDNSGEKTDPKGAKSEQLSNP
UniProt Q08122: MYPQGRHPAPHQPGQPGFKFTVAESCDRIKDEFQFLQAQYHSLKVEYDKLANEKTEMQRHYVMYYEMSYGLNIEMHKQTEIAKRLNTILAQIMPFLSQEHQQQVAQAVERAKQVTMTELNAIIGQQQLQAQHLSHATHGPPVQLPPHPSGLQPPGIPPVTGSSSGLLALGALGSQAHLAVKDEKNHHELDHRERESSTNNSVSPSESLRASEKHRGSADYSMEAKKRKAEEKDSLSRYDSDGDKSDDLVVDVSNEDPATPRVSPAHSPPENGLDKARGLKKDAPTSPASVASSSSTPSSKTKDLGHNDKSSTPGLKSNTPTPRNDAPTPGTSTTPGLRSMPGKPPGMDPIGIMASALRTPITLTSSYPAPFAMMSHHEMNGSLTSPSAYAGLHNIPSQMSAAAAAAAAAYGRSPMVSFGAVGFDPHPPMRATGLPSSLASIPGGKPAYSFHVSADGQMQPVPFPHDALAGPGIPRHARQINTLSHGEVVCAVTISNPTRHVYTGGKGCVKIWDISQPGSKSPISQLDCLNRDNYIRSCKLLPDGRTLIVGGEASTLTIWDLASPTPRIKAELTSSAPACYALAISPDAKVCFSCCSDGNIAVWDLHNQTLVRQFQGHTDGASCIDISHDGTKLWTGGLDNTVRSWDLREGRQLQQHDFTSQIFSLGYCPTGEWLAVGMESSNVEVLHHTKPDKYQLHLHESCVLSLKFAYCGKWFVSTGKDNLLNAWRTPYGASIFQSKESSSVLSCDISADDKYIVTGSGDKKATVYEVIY
UniProt P11103: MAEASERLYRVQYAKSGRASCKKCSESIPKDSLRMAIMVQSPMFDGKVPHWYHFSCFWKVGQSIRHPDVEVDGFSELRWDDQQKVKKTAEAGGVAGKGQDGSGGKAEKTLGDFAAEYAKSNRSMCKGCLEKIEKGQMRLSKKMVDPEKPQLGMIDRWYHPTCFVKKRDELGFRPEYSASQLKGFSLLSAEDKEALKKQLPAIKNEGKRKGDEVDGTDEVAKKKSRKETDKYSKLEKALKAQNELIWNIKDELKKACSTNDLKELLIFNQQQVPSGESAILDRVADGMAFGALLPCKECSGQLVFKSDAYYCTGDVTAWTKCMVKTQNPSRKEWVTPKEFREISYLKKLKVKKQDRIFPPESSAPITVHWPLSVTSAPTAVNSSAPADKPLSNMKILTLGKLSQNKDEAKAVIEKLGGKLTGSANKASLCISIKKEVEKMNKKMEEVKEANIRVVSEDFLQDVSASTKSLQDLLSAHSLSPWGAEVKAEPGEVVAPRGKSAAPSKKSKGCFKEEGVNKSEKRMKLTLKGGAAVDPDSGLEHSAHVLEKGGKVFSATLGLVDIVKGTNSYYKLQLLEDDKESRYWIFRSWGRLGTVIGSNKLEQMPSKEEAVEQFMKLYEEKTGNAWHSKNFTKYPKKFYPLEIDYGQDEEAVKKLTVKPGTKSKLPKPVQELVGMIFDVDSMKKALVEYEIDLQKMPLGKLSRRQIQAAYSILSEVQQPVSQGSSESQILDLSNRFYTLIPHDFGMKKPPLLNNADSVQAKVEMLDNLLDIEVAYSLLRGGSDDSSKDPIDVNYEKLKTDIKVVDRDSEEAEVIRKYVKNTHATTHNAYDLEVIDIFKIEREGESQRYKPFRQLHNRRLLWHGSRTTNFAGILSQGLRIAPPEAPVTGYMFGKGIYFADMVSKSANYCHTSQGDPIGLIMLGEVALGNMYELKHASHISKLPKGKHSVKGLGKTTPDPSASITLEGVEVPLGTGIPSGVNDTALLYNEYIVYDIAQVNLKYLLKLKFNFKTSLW

What follows are substances tested against Sox2 (not stated (endogenous in primary rodent OLs; mouse and rat cultures were made)) (UniProt P48432) (assay: co-IP).

binding, binds:
HDAC1 (from UniProt O09106 1-482) (enzyme), HDAC2 (from UniProt P70288 1-488) (enzyme), TLE3 (from UniProt Q08122 1-772), poly (ADP-ribose) polymerase 1 (PARP1) (from UniProt P11103 1-1013) (enzyme)
